Binding data for one substance are collected here from PMC10881386.

No constants are given. Whether binding was seen depends on the method and setting. A result given as binding can be weak or reduced; the word gives no strength.

In the assay the target is T1, Nup58(523–589) FG-domain fragment (BLI probe) (UniProt Q9BVL2).
T1 sequence (chain, biotin): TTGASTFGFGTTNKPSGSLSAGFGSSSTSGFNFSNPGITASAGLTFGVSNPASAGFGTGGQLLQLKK
Put plainly: BLI; biotinylated, N-terminally Avi-tagged ligands immobilised on streptavidin tips (1 nm); analyte in solution; 20 mM Tris/HCl pH 8.0, 300 mM NaCl, 0.1% BSA, 0.02% Tween-20; OctetRED96; both purified. (In general: In BLI a coated tip is dipped into the sample, and binding shifts an interference pattern.)

Take “CA-N57A mutant hexamers (HIV-1) (complex)”: the binding result is listed as “binds”.
